# Reference: PubChem BioAssay AID2551 (National Center for Advancing Translational Sciences (NCATS), 2010)
# Chains of the proteins cited; added tags and fusions are not shown. Lines headed by an entry give the natural chain unless they say otherwise; changes in a name come on top.
# UniProt P51450: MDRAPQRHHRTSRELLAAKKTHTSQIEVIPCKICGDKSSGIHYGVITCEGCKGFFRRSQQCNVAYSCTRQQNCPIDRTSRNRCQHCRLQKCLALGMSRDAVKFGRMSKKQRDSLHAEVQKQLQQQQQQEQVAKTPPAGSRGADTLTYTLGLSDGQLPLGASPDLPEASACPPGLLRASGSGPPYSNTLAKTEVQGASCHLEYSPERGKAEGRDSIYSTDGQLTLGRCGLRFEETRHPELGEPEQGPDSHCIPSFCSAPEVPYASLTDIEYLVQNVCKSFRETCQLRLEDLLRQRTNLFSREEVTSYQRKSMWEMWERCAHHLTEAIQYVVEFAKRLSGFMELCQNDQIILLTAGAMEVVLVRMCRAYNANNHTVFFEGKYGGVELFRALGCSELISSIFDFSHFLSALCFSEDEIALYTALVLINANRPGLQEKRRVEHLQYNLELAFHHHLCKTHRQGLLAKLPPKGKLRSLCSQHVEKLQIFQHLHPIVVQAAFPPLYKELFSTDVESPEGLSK
# Hit rate of the full screen: of about 310,000 compounds, about 17,000 (5.5%) were called active. This list was built around the results that the source calls inconclusive (neither active nor inactive); the mix of calls is not that of the screen. The call rests on the fitted dose curve; in most records, active means well fitted inhibition curve with a large enough effect; inconclusive means small, poorly fitted or top-dose-only effect, or effect the other way; inactive means no such curve, though single readings can be large or run the other way. Where the call is inconclusive, the potency comes from a doubtful curve fit.
# Target: Nuclear receptor ROR-gamma (Mus musculus) (UniProt P51450)
# Assay: qHTS for inhibitors of ROR gamma transcriptional activity; further: nearly all actives have a fitted effect of over 60% in size
# Conditions: Drosophila S2 Gal4-RORgamma UAS-luciferase reporter, 20 h; activity change, negative = inhibition: at 53.6 µM (top of the series)
# In short: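 A Gal4/UAS one-hybrid system in insect cells: metallothionein-promoter Gal4–ROR gamma fusion plus Photinus luciferase reporter. Copper sulfate 700 uM final, 20 hr ambient incubation, luminescent detection after 10 min with reagent.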
# On the % scale 0 is the no-effect control and ±100 the full control effect; potency means the concentration at half of the fitted maximal effect.
SMILES,Potency,"activity change, negative = inhibition"
Cc1noc(C)c1C(=O)N1CCC2(CC1)CN(c1ccccc1)C2,"inconclusive: 15.8 µM [activator, single point]",–
CCCCC(=O)Nc1cc(C)c2c(=O)oc3ccccc3c2n1,inactive,–
NC(=S)n1[nH]c(-c2ccc([N+](=O)[O-])cc2)c(N=Nc2cccc(Cl)c2)c1=O,active: 0.398 µM,–
O=C(OCc1nnc(-c2ccccc2)o1)C1CC(=O)N(c2ccccc2)C1 (stereo unspecified),inactive,–
CCOC(=O)Cc1csc(NC(=O)c2ccc(NC(C)=O)cc2)n1,"inconclusive: 7.08 µM [activator, partial curve, poor fit]",–
Cc1ccc(NCc2nnc(SCC(=O)NCCc3ccccc3)n2C)cc1,"inconclusive: 10 µM [inhibitor, single point]",–
N#CC(C(=O)Nc1ccc(Cl)c(Cl)c1)=C1Nc2ccccc2N1,"inconclusive: 1.78 µM [inhibitor, partial curve]",–
CCN(CC)S(=O)(=O)c1ccc(NC(=O)CC(NC(C)=O)c2ccccc2)cc1 (stereo unspecified),"inconclusive: 22.4 µM [inhibitor, single point]",–
COCC(=O)N/N=C\c1cccc(OC)c1OC/C=C/c1ccccc1,active: 12.6 µM,–
CCOC(=O)c1[nH]c(C)c(C(=O)NCCc2ccc(OC)cc2)c1C,"inconclusive: 35.5 µM [activator, single point]",–
COC(=O)CCC(=O)NC(=S)Nc1ccccc1F,"inconclusive: 17.8 µM [inhibitor, single point]",–
COc1ccc(C(C[N+](=O)[O-])n2nc(C)cc2C)cc1 (stereo unspecified),"inconclusive: 12.6 µM [inhibitor, single point]",–
CCOc1ccc(NC(=O)Nc2cc(OCC(F)(F)F)cc(OCC(F)(F)F)c2)cc1,"inconclusive: 7.08 µM [activator, full curve]",–
COC(=O)C(NC(=O)c1ccc(F)cc1)(Nc1ncc(S(=O)(=O)c2ccc([N+](=O)[O-])cc2)s1)C(F)(F)F (stereo unspecified),"inconclusive: 35.5 µM [activator, single point]",–
Cc1n[nH]c(C)c1CCc1nc2c3ccccc3nc(SCC(=O)Nc3ccccc3F)n2n1,"inconclusive: 14.1 µM [inhibitor, single point]",–
Oc1ccc2ccccc2c1CNc1ccc(Br)cn1,"inconclusive: 12.6 µM [activator, partial curve]",–
Cc1cc(C(=O)CSc2nncs2)c(C)n1-c1ccc2c(c1)OCO2,"inconclusive: 20 µM [activator, single point]",–
Cc1cccc(C)c1NC(=O)CNCC(=O)N(C)C,inactive,–
COc1ccc(S(=O)(=O)N/N=C\c2ccc3c(c2)OCO3)c(OC)c1,"inconclusive: 3.98 µM [activator, full curve]",–
O=C(CSc1ccc2nnc(-c3cccnc3)n2n1)NCC1CCCO1 (stereo unspecified),"inconclusive: 2 µM [inhibitor, full curve, poor fit]",–
Cc1ccc(C(=O)c2coc3ccc(OCC(=O)O)cc23)cc1,"inconclusive: 0.355 µM [activator, single point]",–
Cc1cc(N2CCC(C)CC2)nc(NCc2ccccc2)n1,"inconclusive: 20 µM [activator, single point]",–
COc1ccccc1OCC(=O)N/N=C/c1c(O)ccc2ccccc12,active: 2.82 µM,–
CC(=O)C1=C(C)NC(=O)CC1c1ccccc1Cl (stereo unspecified),"inconclusive: 12.6 µM [inhibitor, single point]",–

SMILES,Potency,"activity change, negative = inhibition"
Cc1ccc(-c2cc(C(=O)N/N=C/c3c[nH]c4ccccc34)n[nH]2)o1,"inconclusive: 1.41 µM [activator, partial curve]",–
Cc1ccc(N2C(=O)C3C4C=CC(CNC(=S)Nc5cccc(Cl)c5)(O4)C3C2=O)cc1 (stereo unspecified),"inconclusive: 35.5 µM [inhibitor, single point]",–
NC(=O)C1(N2CCCCC2)CCN(C2CC(=O)NC2=O)CC1 (stereo unspecified),"inconclusive: 35.5 µM [inhibitor, single point]",–
CC(C)C[C@H](NC(=O)c1nc[nH]c1C(=O)N[C@@H](CCCCNC(=O)OC(C)(C)C)C(=O)OC(C)(C)C)C(=O)OC(C)(C)C,active: 5.01 µM,–
CC1(C(=O)OCC(=O)N2c3ccccc3Sc3ccccc32)CC1(Cl)Cl (stereo unspecified),"inconclusive: 14.1 µM [activator, single point]",–
CCc1ccc(CNC(=O)c2ccc(OC)c(OC3CCN(C(C)C)CC3)c2)nc1,"inconclusive: 17.8 µM [inhibitor, single point]",–
COc1ccc(C2=CC(=O)N(Nc3ccccc3)C2=O)cc1,"inconclusive: 17.8 µM [inhibitor, single point]",–
CCOC(=O)CNC(c1ccccc1)c1cc(Br)ccc1NC(=O)CCN1CCOCC1 (stereo unspecified),"inconclusive: 35.5 µM [inhibitor, single point]",–
C=CCNc1scc(-c2ccccc2)[n+]1CC=C,active: 12.6 µM,–
N#Cc1cc2ccc(N3CCOCC3)cc2cc1C#N,inactive,–
CCCCOc1[nH]c2nc(-c3ccco3)n(Cc3ccco3)c(=N)c2c1C#N,inactive,–
CCn1ccnc1CNC(=O)c1ccc2oc(CCCc3ccccc3)nc2c1,"inconclusive: 10 µM [inhibitor, single point]",–
CCN(CC)C(=O)CSc1nc(N)c2c3c(sc2n1)CC(C)CC3 (stereo unspecified),"inconclusive: 11.2 µM [activator, single point]",–
CCOC(=O)c1c(C)[nH]c(C(=O)N/N=C\c2ccccc2Cl)c1C,active: 8.91 µM,–
COc1ccc(N2C(=O)CC(Nc3ccc(C(=O)O)cc3)C2=O)cc1OC (stereo unspecified),inactive,–
C/C(=N/NS(=O)(=O)c1ccc(C(C)C)cc1)c1ccncc1,inactive,–
COc1ccccc1C(=O)N/C(=C\c1ccc(Br)cc1)C(=O)NCC(=O)O,inactive,–
S=c1c2c(nc3nc[nH]n13)CCC2,"inconclusive: 0.0708 µM [inhibitor, full curve]",–
Oc1ccc(NCc2cccc(OCc3ccccc3)c2)cc1,active: 11.2 µM,–
CCn1c2ccccc2c2cc(CN3CCN(C(=O)c4ccco4)CC3)ccc21,"inconclusive: 35.5 µM [inhibitor, single point]",–
CN(Cc1cccs1)C(=O)CCc1c[nH]c2ccccc12,"inconclusive: 22.4 µM [activator, single point]",–
CCN(CC)S(=O)(=O)c1cccc(S(=O)(=O)c2cccc(S(=O)(=O)N(CC)CC)c2)c1,"inconclusive: 7.08 µM [activator, partial curve]",–
COCCn1c(SCC(=O)Nc2ccc(OC)cc2OC)nc2ccccc2c1=O,"inconclusive: 2.82 µM [activator, full curve, poor fit]",–
COc1ccc(C(=O)NCCC2=CCCCC2)cc1OC,"inconclusive: 11.2 µM [activator, single point]",–

# A draw from above in order of length of the SMILES, ascending.
SMILES,Potency,"activity change, negative = inhibition"
CC(=O)C1=C(C)NC(=O)CC1c1ccccc1Cl (stereo unspecified),"inconclusive: 12.6 µM [inhibitor, single point]",–
Cc1cc(N2CCC(C)CC2)nc(NCc2ccccc2)n1,"inconclusive: 20 µM [activator, single point]",–
COc1ccc(C2=CC(=O)N(Nc3ccccc3)C2=O)cc1,"inconclusive: 17.8 µM [inhibitor, single point]",–

# Next part:

SMILES,Potency,"activity change, negative = inhibition"
O=C(O)CCn1nnc(-c2cccs2)n1,inactive,–
O=C(CNC(=S)NC(=O)c1cccc([N+](=O)[O-])c1)c1ccccc1,active: 7.08 µM,–
CCc1nn(CC(=O)NCCCN2CCCC2=O)c(=O)c2cc3sccc3n12,inactive,–
CC(=O)NC1=NN(C(C)=O)C(C)(c2ccc3ccccc3c2)S1 (stereo unspecified),–,inactive: -11.7% [at 10 µM]
Cc1[nH]c2ccc(Br)cc2c(=S)c1C/C=C/Cl,active: 7.94 µM,–
CCOCCCNC(=O)C(c1ccccc1)N(Cc1cccs1)C(=O)CNC(C)=O (stereo unspecified),inactive,–
C/C(=N\NC(=S)NCC(C)(C)C)c1cc(F)cc(F)c1O,active: 2.82 µM,–
COc1ccccc1-c1nc(NCc2ccccc2)c2ccccc2n1,active: 35.5 µM,–
C[C@@H]1CC2(OC(O)[C@]3(C)O[C@H]23)O[C@H]2C[C@@]3(C)[C@@H]4CC[C@H]5C(C)(C)C(O[C@@H]6OC[C@@H](O)[C@H](O)[C@H]6O)CC[C@@]56C[C@@]46CC[C@]3(C)[C@@H]12 (stereo partly specified),"inconclusive: 14.1 µM [inhibitor, single point]",–
CN(C)CCCSc1ccccc1NC(=O)/C=C\c1ccccc1,inactive,–
O=C(Nc1c(F)cccc1F)c1cnc(N2CCN(c3ccccn3)CC2)c2ccccc12,"inconclusive: 3.16 µM [inhibitor, single point]",–
O=C(NC(=S)NC1CCSC1=O)c1cccc([N+](=O)[O-])c1 (stereo unspecified),"inconclusive: 35.5 µM [inhibitor, single point]",–
CCOC(=O)c1ccc(N=Cc2c(O)c3ccccc3oc2=O)cc1,inactive,–
Cc1ccc(-c2noc(CCCC(=O)N3CCOCC3)n2)cc1,–,inactive: -24.7% [at 10 µM]
O=C(NCc1ccc(Cl)cc1)c1cc(S(=O)(=O)N2CCCCC2)c[nH]1,"inconclusive: 10 µM [activator, partial curve]",–
CCOC(=O)c1cnc(SC)nc1Oc1cccc(NC(=O)c2ccc(C)cc2)c1,"inconclusive: 1.58 µM [activator, partial curve, poor fit]",–
COCCCNC(=S)NNC(=S)NCCCOC,"inconclusive: 20 µM [inhibitor, single point]",–
COc1ccccc1CNc1nc(-c2c(C)noc2C)nc2ccccc12,inactive,–
COCCn1c(C)cc(C(=O)CSc2cc(C)c3ccccc3n2)c1C,"inconclusive: 8.91 µM [inhibitor, partial curve]",–
Cc1cccc(NS(=O)(=O)c2ccc3oc(=O)ccc3c2)c1C,"inconclusive: 14.1 µM [activator, partial curve]",–
COc1cc(/C=N/NC(=O)c2cc(-c3ccccc3)nc3ccccc23)ccc1O,inactive,–
COc1ccc(OC)c(/C=N/NC(=O)c2cc(-c3ccc(C)o3)nc3ccccc23)c1,"inconclusive: 22.4 µM [inhibitor, single point]",–
Cc1cc(Nc2cccc([N+](=O)[O-])c2)n2c(nc3ccccc32)c1C#N,"inconclusive: 6.31 µM [inhibitor, full curve, poor fit]",–

# Part of the list above, with bars between the fields.
SMILES | Potency | activity change, negative = inhibition
CCn1ccnc1CNC(=O)c1ccc2oc(CCCc3ccccc3)nc2c1 | inconclusive: 10 µM [inhibitor, single point] | –
CCOCCCNC(=O)C(c1ccccc1)N(Cc1cccs1)C(=O)CNC(C)=O (stereo unspecified) | inactive | –
